Reference: patent US20090197899A1, “3-(Dihydro-1H-pyrazolo[4,3-d]pyrimidin-5-yl)-4-propoxybenzenesulfonamide Derivatives and Methods of Use” (Concert Pharmaceuticals Inc., priority 2006, published 2009)
Some entries share one result that the patent states for a list of compounds.

Assay: Metabolic stability of test compounds using human liver microsomes
Format: in vitro ADME
Details: assay conditions 0.5 mg/mL, 1 µM test compd
Procedure: Determination of Metabolic Stability of Test Compounds using Human Liver Microsomes. The metabolic stability of compounds of the invention was tested using pooled liver microsomal incubations. Full scan LC-MS analysis was then performed to detect major metabolites. Samples of the test compounds, exposed to pooled human liver microsomes, were analyzed using HPLC-MS (or MS/MS) detection. For determining metabolic stability, multiple reaction monitoring (MRM) was used to measure the disappearance of the test compounds. For metabolite detection, Q1 full scans were used as survey scans to detect the major metabolites.
Experimental Procedures. Human liver microsomes (“HLM”; 20 mg/mL) were obtained from Xenotech, LLC (Lenexa, Kans.). β-nicotinamide adenine dinucleotide phosphate, reduced form (NADPH), magnesium chloride (MgCl2), and dimethyl sulfoxide (DMSO) were purchased from Sigma-Aldrich.
Stock solutions (7.5 mM) of Compounds 100, 103, 108 and 210 and udenafil were prepared in DMSO. […] Supernatants were transferred to another 96-well plate and analyzed for amounts of parent remaining by LC-MS/MS using an Applied Bio-systems API 4000 mass spectrometer.
The in vitro t1/2s for test compounds were calculated from the slopes of the linear regression of % parent remaining (ln) vs incubation time relationship using the following formula: […]

| SMILES | differentiation of t1/2 (longer) as compared to udenafil |
| --- | --- |
| [2H]C([2H])([2H])n1nc(CCC)c2nc(-c3cc(S(=O)(=O)NCCC4CCCN4C)ccc3OCCC)[nH]c(=O)c21 (centres unmarked) [Compound 108] | ≤ 10% |
| [2H]C([2H])(CC1CCCN1C)NS(=O)(=O)c1ccc(OCCC)c(-c2nc3c(CCC)nn(C)c3c(=O)[nH]2)c1 (centres unmarked) [Compound 103] | ≤ 10% |
